In US8026262B2, “Chemical compounds” (GlaxoSmithKline LLC, priority 2006, dated 2011):
Some of these results come from one statement about several compounds together.

biological target: T1, human AR (Homo sapiens, UniProt P10275); experiment: AR functional assay (agonist mode), MMTV luciferase reporter in transfected CV-1 cells; type: cell-based; settings: CV-1 cells transfected with human AR and MMTV luciferase, values said to be exemplary only
T1 sequence (P10275 560-920 limits assumed): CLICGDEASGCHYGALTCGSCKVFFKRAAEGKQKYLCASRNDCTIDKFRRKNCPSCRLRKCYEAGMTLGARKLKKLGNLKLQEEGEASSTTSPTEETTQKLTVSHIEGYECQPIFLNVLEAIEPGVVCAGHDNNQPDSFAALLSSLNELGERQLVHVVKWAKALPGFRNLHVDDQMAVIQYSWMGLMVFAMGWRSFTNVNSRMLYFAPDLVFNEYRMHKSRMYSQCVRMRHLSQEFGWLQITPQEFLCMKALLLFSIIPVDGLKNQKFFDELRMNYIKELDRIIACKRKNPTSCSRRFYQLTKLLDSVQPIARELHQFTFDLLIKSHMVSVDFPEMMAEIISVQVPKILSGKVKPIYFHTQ

| SMILES | pIC50 in the agonist mode of the AR functional assay |
| --- | --- |
| Cc1cc2c(C(F)(F)F)c(C#N)ccc2n1[C@H](C)COc1cccnc1 [Example 332, 2-Methyl-1-[(1R)-1-methyl-2-(3-pyridinyloxy)ethyl]-4-(trifluoromethyl)-1H-indole-5-carbonitrile] | ≥ 5.01 |
| Cc1cc2c(C(F)(F)F)c(C#N)ccc2n1CCOc1ccc(F)cc1 [Example 333, 1-{2-[(4-Fluorophenyl)oxy]ethyl}-2-methyl-4-(trifluoromethyl)-1H-indole-5-carbonitrile] | ≥ 5.01 |
| Cc1cc2c(C(F)(F)F)c(C#N)ccc2n1[C@H](C)COc1ccccn1 [Example 334, 2-Methyl-1-[(1R)-1-methyl-2-(2-pyridinyloxy)ethyl]-4-(trifluoromethyl)-1H-indole-5-carbonitrile] | ≥ 5.01 |
| Cc1cc2c(C(F)(F)F)c(C#N)ccc2n1CC(C)O (centres unmarked) [Example 335, 1-(2-Hydroxypropyl)-2-methyl-4-(trifluoromethyl)-1H-indole-5-carbonitrile] | ≥ 5.01 |
| Cc1cc2c(C(F)(F)F)c(C#N)ccc2n1CC(C)Oc1ccc(F)nc1 (centres unmarked) [Example 336, 1-{2-[(6-Fluoro-3-pyridinyl)oxy]propyl}-2-methyl-4-(trifluoromethyl)-1H-indole-5-carbonitrile] | ≥ 5.01 |
| Cc1cc2c(C(F)(F)F)c(C#N)ccc2n1CC(C)Oc1cccnc1 (centres unmarked) [Example 337, 2-Methyl-1-[2-(3-pyridinyloxy)propyl]-4-(trifluoromethyl)-1H-indole-5-carbonitrile] | ≥ 5.01 |
| CC(=O)Nc1ccc(OC(C)Cn2c(C)cc3c(C(F)(F)F)c(C#N)ccc32)cc1 (centres unmarked) [Example 338, N-[4-({2-[5-Cyano-2-methyl-4-(trifluoromethyl)-1H-indol-1-yl]-1-methylethyl}oxy)phenyl]acetamide] | ≥ 5.01 |
| Cc1cc2c(C(F)(F)F)c(C#N)ccc2n1CC(C)Oc1ccccn1 (centres unmarked) [Example 339, 2-Methyl-1-[2-(2-pyridinyloxy)propyl]-4-(trifluoromethyl)-1H-indole-5-carbonitrile] | ≥ 5.01 |
| Cc1cc2c(C(F)(F)F)c(C#N)ccc2n1CCOc1ccc(C#N)c(F)c1 [Example 340, 1-{2-[(4-Cyano-3-fluorophenyl)oxy]ethyl}-2-methyl-4-(trifluoromethyl)-1H-indole-5-carbonitrile] | ≥ 5.01 |
| Cc1cc2c(C(F)(F)F)c(C#N)ccc2n1CCOc1ccc(Cl)nc1 [Example 341, 1-{2-[(6-Chloro-3-pyridinyl)oxy]ethyl}-2-methyl-4-(trifluoromethyl)-1H-indole-5-carbonitrile] | ≥ 5.01 |
| COCCn1c(C)cc2c(C(F)(F)F)c(C#N)ccc21 [Example 342, 2-Methyl-1-[2-(methyloxy)ethyl]-4-(trifluoromethyl)-1H-indole-5-carbonitrile] | ≥ 5.01 |
| COCCOCCn1c(C)cc2c(C(F)(F)F)c(C#N)ccc21 [Example 343, 2-Methyl-1-(2-{[2-(methyloxy)ethyl]oxy}ethyl)-4-(trifluoromethyl)-1H-indole-5-carbonitrile] | ≥ 5.01 |
| COC[C@@H](C)n1c(C)cc2c(C(F)(F)F)c(C#N)ccc21 [Example 344, 2-Methyl-1-[(1R)-1-methyl-2-(methyloxy)ethyl]-4-(trifluoromethyl)-1H-indole-5-carbonitrile] | ≥ 5.01 |
| Cc1cc2c(C(F)(F)F)c(C#N)ccc2n1CC(C)(C)O [Example 345, 1-(2-Hydroxy-2-methylpropyl)-2-methyl-4-(trifluoromethyl)-1H-indole-5-carbonitrile] | ≥ 5.01 |
| COC(C)Cn1c(C)cc2c(C(F)(F)F)c(C#N)ccc21 (centres unmarked) [Example 346, 2-Methyl-1-[2-(methyloxy)propyl]-4-(trifluoromethyl)-1H-indole-5-carbonitrile] | ≥ 5.01 |
| Cc1cc2c(C(F)(F)F)c(C#N)ccc2n1CCCO [Example 348, 1-(3-Hydroxypropyl)-2-methyl-4-(trifluoromethyl)-1H-indole-5-carbonitrile] | ≥ 5.01 |

| SMILES | pIC50 in the agonist mode of the AR functional assay |
| --- | --- |
| COCCCn1c(C)cc2c(C(F)(F)F)c(C#N)ccc21 [Example 349, 2-Methyl-1-[3-(methyloxy)propyl]-4-(trifluoromethyl)-1H-indole-5-carbonitrile] | ≥ 5.01 |
| Cc1cc2c(C(F)(F)F)c(C#N)ccc2n1CC(C)CO (centres unmarked) [Example 351, 1-(3-Hydroxy-2-methylpropyl)-2-methyl-4-(trifluoromethyl)-1H-indole-5-carbonitrile] | ≥ 5.01 |
| COCC(C)Cn1c(C)cc2c(C(F)(F)F)c(C#N)ccc21 (centres unmarked) [Example 352, 2-Methyl-1-[2-methyl-3-(methyloxy)propyl]-4-(trifluoromethyl)-1H-indole-5-carbonitrile] | ≥ 5.01 |
| Cc1cc2c(C(F)(F)F)c(C#N)ccc2n1Cc1coc(-c2cc(C(F)(F)F)cc(C(F)(F)F)c2)n1 [Example 354, 1-({2-[3,5-bis(Trifluoromethyl)phenyl]-1,3-oxazol-4-yl}methyl)-2-methyl-4-(trifluoromethyl)-1H-indole-5-carbonitrile] | ≥ 5.01 |
| COC(=O)CCc1cc2c(C(F)(F)F)c(C#N)ccc2n1Cc1noc(-c2ccccc2C(F)(F)F)n1 [Example 355, Methyl 3-[5-cyano-4-(trifluoromethyl)-1-({5-[2-(trifluoromethyl)phenyl]-1,2,4-oxadiazol-3-yl}methyl)-1H-indol-2-yl]propanoate] | ≥ 5.01 |
| N#Cc1ccc2c(cc(C3CC3)n2Cc2ccc(-c3cc(C(F)(F)F)cc(C(F)(F)F)c3)o2)c1C(F)(F)F [Example 356, 1-({5-[3,5-bis(Trifluoromethyl)phenyl]-2-furanyl}methyl)-2-cyclopropyl-4-(trifluoromethyl)-1H-indole-5-carbonitrile] | ≥ 5.01 |
| N#Cc1ccc2c(cc(C3CC3)n2Cc2ccc(-c3cc(C(F)(F)F)ccc3F)o2)c1C(F)(F)F [Example 358, 2-Cyclopropyl-1-({5-[2-fluoro-5-(trifluoromethyl)phenyl]-2-furanyl}methyl)-4-(trifluoromethyl)-1H-indole-5-carbonitrile] | ≥ 5.01 |
| N#Cc1ccc2c(cc(C3CC3)n2Cc2csc(-c3ccccc3Cl)n2)c1C(F)(F)F [Example 359, 1-{[2-(2-Chlorophenyl)-1,3-thiazol-4-yl]methyl}-2-cyclopropyl-4-(trifluoromethyl)-1H-indole-5-carbonitrile] | ≥ 5.01 |
| N#Cc1ccc2c(cc(C3CC3)n2Cc2csc(-c3ccc(Cl)cc3)n2)c1C(F)(F)F [Example 360, 1-{[2-(4-Chlorophenyl)-1,3-thiazol-4-yl]methyl}-2-cyclopropyl-4-(trifluoromethyl)-1H-indole-5-carbonitrile] | ≥ 5.01 |
| N#Cc1ccc2c(cc(C3CC3)n2Cc2csc(-c3ccc(C(F)(F)F)cc3)n2)c1C(F)(F)F [Example 361, 2-Cyclopropyl-4-(trifluoromethyl)-1-({2-[4-(trifluoromethyl)phenyl]-1,3-thiazol-4-yl}methyl)-1H-indole-5-carbonitrile] | ≥ 5.01 |
| N#Cc1ccc2c(cc(C3CC3)n2Cc2nnc(-c3cccc(C(F)(F)F)c3)o2)c1C(F)(F)F [Example 362, 2-Cyclopropyl-4-(trifluoromethyl)-1-({5-[3-(trifluoromethyl)phenyl]-1,3,4-oxadiazol-2-yl}methyl)-1H-indole-5-carbonitrile] | ≥ 5.01 |
| CCNC(=O)Cn1c(C2CC2)cc2c(C(F)(F)F)c(C#N)ccc21 [Example 363, 2-[5-Cyano-2-cyclopropyl-4-(trifluoromethyl)-1H-indol-1-yl]-N-ethylacetamide] | ≥ 5.01 |
| N#Cc1ccc2c(cc(C3CC3)n2Cc2noc(-c3cc(C(F)(F)F)ccn3)n2)c1C(F)(F)F [Example 364, 2-Cyclopropyl-4-(trifluoromethyl)-1-({5-[4-(trifluoromethyl)-2-pyridinyl]-1,2,4-oxadiazol-3-yl}methyl)-1H-indole-5-carbonitrile] | ≥ 5.01 |
| N#Cc1ccc2c(cc(C3CC3)n2Cc2noc(-c3cccc(C(F)(F)F)n3)n2)c1C(F)(F)F [Example 365, 2-Cyclopropyl-4-(trifluoromethyl)-1-({5-[6-(trifluoromethyl)-2-pyridinyl]-1,2,4-oxadiazol-3-yl}methyl)-1H-indole-5-carbonitrile] | ≥ 5.01 |
| N#Cc1ccc2c(cc(C3CC3)n2Cc2noc(-c3cc(C(F)(F)F)ccc3F)n2)c1C(F)(F)F [Example 366, 2-Cyclopropyl-1-({5-[2-fluoro-5-(trifluoromethyl)phenyl]-1,2,4-oxadiazol-3-yl}methyl)-4-(trifluoromethyl)-1H-indole-5-carbonitrile] | ≥ 5.01 |
| N#Cc1ccc2c(cc(C3CC3)n2Cc2noc(-c3ccnc(C(F)(F)F)c3)n2)c1C(F)(F)F [Example 367, 2-Cyclopropyl-4-(trifluoromethyl)-1-({5-[2-(trifluoromethyl)-4-pyridinyl]-1,2,4-oxadiazol-3-yl}methyl)-1H-indole-5-carbonitrile] | ≥ 5.01 |
